“And” between values parts separate entries of the source, which are not always exact repeats. Identical values can stand only once. In all, about 78,000 compounds went through this assay and about 1,800 (2.3%) were called active. Inconclusive results, whose numbers are uncertain, are shown with a selection of clear calls. No stated cut-off is given here; in the data, active means inhibition above about 30%; inconclusive means mostly about 10% to 28%; inactive means weaker than that.
biological target: Interleukin-1 receptor-like 1 (Homo sapiens) (UniProt Q01638); test: blocks human ST2 binding to IL-33, primary screen, biochemical, AlphaLISA (AID 1259354); conditions: AlphaLISA ST2-Fc/biotin-IL-33 interaction, 1 h; at 17 µM, stronger effect = higher value

The chains behind the UniProt entries cited, without tags or fusion partners. Where a name states a change or a piece, a line headed by the entry shows the natural chain unless it says otherwise.
UniProt Q01638: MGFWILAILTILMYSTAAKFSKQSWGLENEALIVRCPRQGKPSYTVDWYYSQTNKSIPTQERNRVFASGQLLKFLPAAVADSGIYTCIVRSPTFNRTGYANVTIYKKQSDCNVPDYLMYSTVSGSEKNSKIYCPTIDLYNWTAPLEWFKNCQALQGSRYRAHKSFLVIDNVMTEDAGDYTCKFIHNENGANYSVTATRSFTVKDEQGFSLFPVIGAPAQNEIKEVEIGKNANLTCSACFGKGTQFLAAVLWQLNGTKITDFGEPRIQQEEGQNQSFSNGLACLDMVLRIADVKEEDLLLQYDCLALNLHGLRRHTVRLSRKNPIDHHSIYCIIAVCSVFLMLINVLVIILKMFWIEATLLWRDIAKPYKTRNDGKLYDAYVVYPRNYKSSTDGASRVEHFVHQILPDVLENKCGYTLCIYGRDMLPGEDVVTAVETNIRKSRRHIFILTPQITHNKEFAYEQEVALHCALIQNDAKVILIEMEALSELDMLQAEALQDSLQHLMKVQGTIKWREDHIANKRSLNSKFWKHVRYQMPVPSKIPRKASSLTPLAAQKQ

Row | SMILES | inhibition
1 | COc1cccc(N2C(=O)[C@@H]3C4C=CC(C4=C(C)C)[C@@H]3C2=O)c1 | inconclusive: 13%
2 | CN(C)/C=C1\C(=O)N(c2ccc([N+](=O)[O-])cc2)N=C1c1ccccc1 | inconclusive: 26%
3 | CCn1cc(/C=C/c2ccccc2)c(C)n1 | inconclusive: 16%
4 | COCc1cc(CNC(=O)c2cn(-c3ccccc3)nn2)[nH]n1 | inconclusive: 12%
5 | COc1cccc(/C=C2/C(=O)N(c3ccc(Cl)c(Cl)c3)N=C2C)c1 | inconclusive: 17%
6 | O=C1NC(=O)N(c2ccccc2)C(=O)C1C(c1ccccc1)c1ccccc1 (stereo unspecified) | inactive
7 | Cc1cnc(C)c(-c2ccccc2CO)n1 | inactive
8 | COc1cc(Br)c(NC(=O)COc2ccc(Cl)cc2)c(Br)c1 | inconclusive: 24%
9 | Cn1ccnc1-c1nccn1CCCc1cccnc1 | inconclusive: 14%
10 | COC(=O)c1cc2n(n1)CCCN(C(=O)CSc1nc(C)cs1)C2 | inconclusive: 21%
11 | Cc1c(C(=O)NC2CCC(C)CC2)oc2ccc(S(=O)(=O)N3CCCC3)cc12 (stereo unspecified) | inactive
12 | COC(=O)c1ccc(N2C(=O)CSC2c2cccc(Cl)c2Cl)cc1 (stereo unspecified) | inactive
13 | COC(=O)c1ccc2c(c1)N(Cc1cccc(F)c1)C(=O)CS2(=O)=O | inconclusive: 12%
14 | Cc1ccccc1CCC1CCCN(S(C)(=O)=O)C1 (stereo unspecified) | inconclusive: 14%
15 | Nc1ccc(C(=O)Nc2ccc(-c3nc4ccc(NC(=O)c5ccc(N)cc5)cc4s3)cc2)cc1 | inconclusive: 12%
16 | CN1C[C@@H](NC(=O)NC2CCCCC2)C[C@H]1c1nc(-c2ccc(OC(F)(F)F)cc2)no1 | inconclusive: 13%
17 | Cc1cc2c(Nc3ccc(Cl)cc3)ncnc2s1 | inconclusive: 29%
18 | COc1cc(C2C(C#N)=C(N)Oc3cc(N)ccc32)ccc1O (stereo unspecified) | inconclusive: 11%
19 | Cc1ccsc1CNc1ccccc1C(=O)N1CCCC(CCN)C1 (stereo unspecified) | inconclusive: 11%
20 | O=S(=O)(N[C@H]1CO[C@H]2[C@@H]1OC[C@@H]2Nc1nccc(-c2cccs2)n1)c1cccs1 | inconclusive: 12%
21 | CCCc1ncncc1C(=O)N1CCCC(O)(CO)CC1 (stereo unspecified) | inconclusive: 10%
22 | c1ccc(-c2ncc(CSc3nc4ccccc4s3)o2)cc1 | inconclusive: 21%
23 | O=C(CSc1nc2c(c(=O)n1-c1ccc(F)cc1)SCC2)N1CCCc2ccccc21 | inconclusive: 10%
24 | Cc1cc(N(C)C)nc(Nc2ccc(NC(=O)c3cccc(C(F)(F)F)c3)cc2)n1 | inconclusive: 12%

Row | SMILES | inhibition
25 | CNC(=O)CC(C)N(C)CC1=Cc2cc(Cl)ccc2OC1 (stereo unspecified) | inconclusive: 14%
26 | CCCc1nnc([C@H]2CCN(Cc3ccc(C(=O)O)cc3)C2)o1 | inconclusive: 11%
27 | O=C(NC1CC(=O)N(Cc2cccc(F)c2)C1)C(=O)N1CCOCC1 (stereo unspecified) | inconclusive: 15%
28 | Cc1cccc(NC(=O)CCS(=O)(=O)c2ccccc2)c1 | inconclusive: 16%
29 | Cc1ccc(NC(=O)CN2CC(C(=O)O)CC2=O)c(F)c1 (stereo unspecified) | inactive
30 | CCCCOc1ccc(C2C(C#N)=C(N)Oc3n[nH]c(C)c32)cc1 (stereo unspecified) | inactive
31 | O=c1[nH]nc(CCc2ccccc2O)n1Cc1ccco1 | inactive
32 | COCCC(=O)N[C@H]1CC[C@]2(C)CC[C@@H]([C@H](C)C(=O)NCc3ccccn3)[C@H](O)[C@H]2[C@@H]1C | inconclusive: 10%
33 | Cc1cccc(N2CCN(Cc3ccco3)CC2)c1C | inconclusive: 10%
34 | Nc1ncc(C(=O)Nc2cnc3n2CCCC3)c(-c2ccccc2)n1 | inconclusive: 12%
35 | COc1ccc(Cn2c(CNC(=O)Cc3cccc(C)c3)nc3cccnc32)cc1 | inconclusive: 19%
36 | Cc1cc(N2CCOCC2)nc(N2CCN(S(=O)(=O)c3ccccc3)CC2)n1 | inconclusive: 11%
37 | CCOc1cc(C2C(C(=O)OC(C)CC)=C(C)NC3=C2C(=O)C(C(=O)OC)C(C)C3)ccc1O (stereo unspecified) | inactive
38 | Cc1cc(NC(=O)c2cccs2)nc2c1c(=O)oc1ccccc12 | inactive
39 | c1cncc(OC2CCN(c3nc4nonc4nc3N3CCSCC3)CC2)c1 | inactive
40 | Cc1cccc(C(=O)N2CCN=C2SCc2ccccc2F)c1 | inactive
41 | CN(C(=O)c1cccc(-c2ccco2)c1)C1CCCN(Cc2ccccc2F)C1 (stereo unspecified) | inconclusive: 15%
42 | COc1ccc(C2N=C(N)N=C(N)N2c2ccccc2OC)cc1 (stereo unspecified) | inconclusive: 10%
43 | Cc1cc(C)cc(C(=O)NCCSc2c(C)[nH]c3ccccc23)c1 | inactive
44 | Cc1[nH]ncc1C(=O)N1CCC2(CCCN(CCCc3ccccc3)C2)C1 (stereo unspecified) | inactive
45 | COc1ccc(-c2cnc(-c3c(O)c(C)nc4ccccc34)o2)cc1 | inconclusive: 12%
46 | O=C1CC(c2ccc3c(c2)OCO3)CC2=C1C(c1cccnc1)Nc1ccccc1N2 (stereo unspecified) | inactive
47 | Cc1ccc(-c2noc(CCC(=O)N3CCN(c4cc(Cl)ccc4C)CC3)n2)cc1 | inactive
48 | COc1ccc(C(=O)Nc2ccccc2I)cc1 | inactive

Row | SMILES | inhibition
49 | CC(C)OC(=O)c1nnn(-c2nonc2N)c1CN1CCc2ccccc21 | inconclusive: 18%
50 | c1ccc(CCCOc2ccccc2-n2cnnc2)cc1 | inconclusive: 13%
51 | COc1cc(/C=C2\SC(=O)N(CC(=O)Nc3ccc(C)cc3C)C2=O)cc(OC)c1OC | inconclusive: 18%
52 | Oc1c(C=Nc2ccc(Br)cc2)[nH]c2ccc(Br)c(Cl)c12 | active: 30%
53 | O=C(Nc1cccc(F)c1)c1ccc(-c2ccccc2)cc1 | inconclusive: 22%
54 | COc1ccc(N2CCN(c3ncnc4sc(C(=O)N5CCCCC5)c(C)c34)CC2)cc1 | inconclusive: 27%
55 | CN(C)CCN(C)[C@@H]1[C@H](O)[C@H](CO)O[C@@H]1CNC(=O)c1ccc(F)c(Cl)c1 | inconclusive: 11%
56 | CCS(=O)(=O)N1CC(=O)Nc2ccc(Br)cc2C1c1ccccc1 (stereo unspecified) | inconclusive: 10%
57 | Cc1cccc(N2CCN(Cc3ccsc3)CC2)c1C | inconclusive: 21%
58 | CCOC(=O)c1cccnc1-c1cc(OC)ccc1F | inactive
59 | COc1ccc(CCNC(=O)c2sc3nc(-c4ccc(F)cc4)ccc3c2N)cc1OC | inconclusive: 23%
60 | CCC1=C(c2ccc(OC)cc2)S(=O)(=O)N(CC(=O)Nc2ccc(OC)c(Cl)c2)C1=O | inconclusive: 15%
61 | O=C(Nc1ccccc1C(=O)O)c1cccnc1 | inconclusive: 16%
62 | O=C(c1ccc2c(c1)OCO2)N1CCN=C1SCc1ccccc1F | inconclusive: 18%
63 | COC(=O)c1cc2c(s1)CN(C1CCCCCCC1)C2 | inconclusive: 22%
64 | O=C(O)C1CCC(CNS(=O)(=O)c2ccccc2)CC1 (stereo unspecified) | inactive
65 | O=C1CCCC2=C1C(c1ccc(Br)cc1)C1=C(N2)c2ccccc2C1=O (stereo unspecified) | inconclusive: 12%
66 | N#Cc1cc2[nH]c3ccccc3c2n(-c2ccc([N+](=O)[O-])cc2)c1=N | active: 34% and inconclusive: 14%
67 | CCN(Cc1cnc(N)nc1)CC1CCOCC1 | inactive
68 | COc1ccc(CCNC(=O)N2CCOC(C(F)(F)F)C2)cc1 (stereo unspecified) | inconclusive: 10%
69 | CC1CCc2c(sc(NC(=O)C(C)Oc3ccc(Cl)cc3Cl)c2C(N)=O)C1 (stereo unspecified) | inactive
70 | CN(C)CCCN1c2ccccc2Sc2ccc(C(F)(F)F)cc21 | inconclusive: 16%
71 | O=C(NCc1ccccc1Cl)c1ccc2c(c1)ncn2C1CCCC1 | inconclusive: 11%
72 | Nc1nc(-c2ccccc2)cs1 | inactive

Row | SMILES | inhibition
73 | O=C(Nc1c(-c2ccccc2)nc2ccccn12)C1CCCCC1 | inactive
74 | CCOc1ccc(C2=C(CN(C)C)C(c3ccc(F)cc3)c3ccccc3O2)cc1 (stereo unspecified) | active: 40%
75 | O=C(Cc1ccccc1)Nc1ccc(NC(=O)c2ccc(NC(=O)Cc3ccccc3)cc2)cc1 | inconclusive: 23%
76 | Cc1ccc(Cl)cc1NS(=O)(=O)c1ccc2c(c1)CCN2C(=O)CCC(=O)O | inconclusive: 12%
77 | O=C(CC12CC3CC(CC(C3)C1)C2)N1CCN2CCCC2C1 (stereo unspecified) | inconclusive: 13%
78 | Cc1nc2ncccn2c1C(=O)NCc1cccnc1N(C)C | inconclusive: 13%
79 | COC(=O)[C@@H]1C[C@@H](NC(=O)CCn2nnc3ccccc32)CN1C | inactive
80 | Cc1ccccc1CSC1=NCCN1C(=O)Cc1ccc(F)cc1 | inconclusive: 12%
81 | CN(CC#CC(C)(C)O)Cc1ccccc1 | inconclusive: 17%
82 | COCCN1C(=O)CC(CC(=O)N2CCCC(c3cccc(C)c3)C2)(c2ccccc2OC)C1=O (stereo unspecified) | inactive
83 | CCOc1ccc(NC(=O)c2ccccc2Br)c([N+](=O)[O-])c1 | active: 36%
84 | O=C(NCCCN1CCOCC1)C1CCCN(Cc2ccco2)C1 (stereo unspecified) | inconclusive: 24%
85 | O=C(c1ccco1)N1CCN(c2ncnc3scc(-c4ccccc4)c23)CC1 | inconclusive: 10%
86 | CCC(NC1CCCC1)c1ccc(S(C)(=O)=O)cc1 (stereo unspecified) | inconclusive: 12%
87 | O=C(Cc1cccs1)N1CCN=C1SCc1ccccc1F | inconclusive: 10%
88 | CC(=O)Nc1ccc(S(=O)(=O)N2C[C@@H]3C[C@H](C2)c2ccc(-c4ccc5ccccc5c4)c(=O)n2C3)cc1 | inconclusive: 12%
89 | Cc1ccc2c(c1)c1c(n2C)C(=O)CCC1 | inconclusive: 28%
90 | FC(F)(F)c1cccc(-c2ncnn2-c2ccc(Br)nc2)c1 | inactive
91 | Fc1cccc(-c2nccn2CCCc2ccncc2)c1F | inactive
92 | CC(C)Cc1cc(C(=O)N2CCOC(CCCc3ccccc3)C2)n[nH]1 (stereo unspecified) | inactive
93 | N#Cc1cccc(NC(=S)N[C@H]2CO[C@H]3[C@@H]2OC[C@@H]3n2cc(CC3CCCCC3)nn2)c1 | inactive
94 | CCOc1ccc2nc(N3CCCN(Cc4cc(OC)c5c(c4)OCO5)CC3)nc(C)c2c1 | inconclusive: 18%
95 | Cc1ccsc1CN(Cc1nccn1C)C1CCCC1 | inconclusive: 13%
96 | O=C1NCC2(CCCN(c3nc4ccccc4s3)CC2)O1 (stereo unspecified) | inactive

— PubChem BioAssay AID1259354 (Paczesny and Yang Labs, IUPUI and University of Michigan, 2018)
